Laboratory results reported in article PMC11761162.

B1: mGBP1 (murine guanylate binding protein 1) (protein, UniProt Q01514 1-589)
chain: MASEIHMSEPMCLIENTEAQLVINQEALRILSAITQPVVVVAIVGLYRTGKSYLMNKLAGKRTGFSLGSTVQSHTKGIWMWCVPHPKKAGQTLVLLDTEGLEDVEKGDNQNDCWIFALAVLLSSTFIYNSIGTINQQAMDQLHYVTELTDLIKSKSSPDQSDVDNSANFVGFFPIFVWTLRDFSLDLEFDGESITPDEYLETSLALRKGTDENTKKFNMPRLCIRKFFPKRKCFIFDRPGDRKQLSKLEWIQEDQLNKEFVEQVAEFTSYIFSYSGVKTLSGGITVNGPRLKSLVQTYVSAICSGELPCMENAVLTLAQIENSAAVQKAITYYEEQMNQKIHMPTETLQELLDLHRTCEREAIEVFMKNSFKDVDQKFQEELGAQLEAKRDAFVKKNMDMSSAHCSDLLEGLFAHLEEEVKQGTFYKPGGYYLFLQRKQELEKKYIQTPGKGLQAEVMLRKYFESKEDLADTLLKMDQSLTEKEKQIEMERIKAEAAEAANRALAEMQKKHEMLMEQKEQSYQEHMKQLTEKMEQERKELMAEQQRIISLKLQEQERLLKQGFQNESLQLRQEIEKIKNMPPPRSCTIL
B2: mGBP5 (murine guanylate binding protein 5) (protein, UniProt Q8CFB4 1-590)
chain: MAPEIHMPEPLCLIGSTEGHLVTNQEALKILSAITQPVVVVAIVGLYRTGKSYLMNKLAGKEKGFSVGSTVQSHTKGIWMWCVPHPQKPDHTLVLLDTEGLGDVEKDDKKNDTQIFALAILLSSTFVYNTMNKIDQGAIDLLHNVTELTDLLRTRNSSDSNQTEGEGPADMSFFPDLVWTLRDFFLDLQANGHAITSDEYLENSLKLKQGSDERTQTFNLPRLCIQKFFPVKKCFVFDAPALGSKLSQLPTLSNEELNSDFVQDLSEFCSHIFTQSKTKTLPGGIQVNGPRLESLVLTYVDAINSGALPSIENTVVTLARRENSAAVQKAIGHYDQLMSEKVQLPTETLQELLDLHRTCEREAIEIFRKHSFKDEGEFFQKELESLLSAKQDEICKKNADASAALCSTLLGSIFKPLEQEVAQEFYHKPGGHKLFLQRMEQLKANYRQQPGKGTQAEEVLQTYLNAKETVSRTILQTDQVLTDKEIQSKAEQERAEAARLEAQRLEAIRIQEEQRKAEMERQHQEQLRQIALEKARVAQEQQWILKQRAQEEADRIKAEQEAQLRALQQQLQHMREMNHHRRHHHDCVIS

Target: T1, HA-mGBP2 fusion protein (murine guanylate binding protein 2) (mouse) (UniProt Q9Z0E6)
T1 sequence: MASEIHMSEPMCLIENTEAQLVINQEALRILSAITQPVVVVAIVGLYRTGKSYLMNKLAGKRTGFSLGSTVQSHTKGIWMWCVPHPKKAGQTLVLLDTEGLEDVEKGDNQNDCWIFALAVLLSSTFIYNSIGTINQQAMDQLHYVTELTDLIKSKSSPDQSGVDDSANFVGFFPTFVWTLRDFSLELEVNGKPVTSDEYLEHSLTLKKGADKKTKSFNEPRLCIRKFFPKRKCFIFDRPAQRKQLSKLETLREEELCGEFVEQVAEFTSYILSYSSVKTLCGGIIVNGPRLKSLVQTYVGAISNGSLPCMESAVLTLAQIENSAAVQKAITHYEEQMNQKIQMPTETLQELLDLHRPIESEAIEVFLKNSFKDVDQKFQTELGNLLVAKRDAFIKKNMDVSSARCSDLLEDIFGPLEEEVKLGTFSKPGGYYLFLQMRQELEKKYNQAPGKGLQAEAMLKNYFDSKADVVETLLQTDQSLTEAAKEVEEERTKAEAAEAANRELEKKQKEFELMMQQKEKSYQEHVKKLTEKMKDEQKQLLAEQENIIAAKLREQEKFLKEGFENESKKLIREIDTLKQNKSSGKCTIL
Assay: affinity purification with mass spectrometry; anti-HA antibody (clone HA-7) agarose beads, o/n at 4°C, on lysate supernatants (NP-40 buffer) of mGBP2-/- MEFs reconstituted with HA-mGBP2; IFN-γ 16 h, uninfected or infected with T. gondii ME49 (MOI 50) 2 h; empty-vector cells as control; label-free quantitative LC-MS/MS

| Binder | binding |
| --- | --- |
| B1 | binds |
| B2 | binds |

No constants are given. Whether binding was seen depends on the method and setting. In cells and extracts the contact can be indirect. A yes stands for co-enrichment or nearness to the bait. Other partners may have been found. Sequences can lack the tags named with a protein.
